Experimental data reported in patent US20120329784A1, “COMPOUNDS AND METHODS” (priority 2010, published 2012).
Counter-ions that a name gives are not always drawn. Some results were stated once for a whole list of compounds, not compound by compound.

biological target: T1, Full length human TNNI3K (hTNNI3K) (Homo sapiens, UniProt Q59H18); assay: Fluorescent polarization assay of compound inhibition on hTNNI3K ATP binding (Biological Assay Method I); conditions: mean of a minimum of 2 experiments; displacement of fluorescent ligand from hTNNI3K ATP binding pocket; 60 min at rt
T1 construct: His-MBP-TEV-Full length human TNNI3K (hTNNI3K); His (N); MBP (N); TEV cleavage site (N); made in house; host or cells: baculovirus expression system (printed 'Baculokinase system')
T1 sequence (Q59H18 1-835): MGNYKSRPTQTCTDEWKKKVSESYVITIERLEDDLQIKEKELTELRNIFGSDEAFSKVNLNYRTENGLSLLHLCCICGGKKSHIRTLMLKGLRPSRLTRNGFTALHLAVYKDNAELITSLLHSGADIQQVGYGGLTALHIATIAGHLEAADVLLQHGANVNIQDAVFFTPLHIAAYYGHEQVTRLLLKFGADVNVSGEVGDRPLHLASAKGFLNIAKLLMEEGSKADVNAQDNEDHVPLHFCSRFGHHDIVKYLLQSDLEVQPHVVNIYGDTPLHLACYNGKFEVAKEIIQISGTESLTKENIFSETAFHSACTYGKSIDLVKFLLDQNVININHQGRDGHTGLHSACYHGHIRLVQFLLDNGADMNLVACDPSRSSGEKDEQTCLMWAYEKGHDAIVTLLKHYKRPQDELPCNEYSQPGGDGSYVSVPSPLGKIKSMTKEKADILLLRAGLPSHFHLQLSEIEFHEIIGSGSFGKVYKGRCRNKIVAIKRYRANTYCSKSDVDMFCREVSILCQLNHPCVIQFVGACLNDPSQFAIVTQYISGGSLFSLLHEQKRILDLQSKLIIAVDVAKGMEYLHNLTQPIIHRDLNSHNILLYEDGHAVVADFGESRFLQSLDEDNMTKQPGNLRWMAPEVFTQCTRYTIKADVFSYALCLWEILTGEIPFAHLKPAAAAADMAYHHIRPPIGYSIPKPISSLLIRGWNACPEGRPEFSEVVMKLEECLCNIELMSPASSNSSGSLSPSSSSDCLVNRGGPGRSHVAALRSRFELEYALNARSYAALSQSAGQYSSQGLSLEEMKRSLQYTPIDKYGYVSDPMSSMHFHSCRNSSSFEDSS

pXC50, ≥ 6.0:
CNS(=O)(=O)c1ccc2ncn(-c3cc(Nc4ccc(Cl)cc4)ncn3)c2c1 [Example 248, 1-{6-[(4-chlorophenyl)amino]-4-pyrimidinyl}-N-methyl-1H-benzimidazole-6-sulfonamide trifluoroacetate]
CNS(=O)(=O)c1ccc(OCC(F)(F)F)c(Nc2cc(Nc3ccc(OCCOC)cc3)ncn2)c1 [Example 35, N-methyl-3-({6-[(4-{[2-(methyloxy)ethyl]oxy}phenyl)amino]-4-pyrimidinyl}amino)-4-[(2,2,2-trifluoroethyl)oxy]benzenesulfonamide trifluoroacetate]
CNS(=O)(=O)c1ccc(OC)c(Nc2cc(Nc3ccc(C(F)(F)F)cc3)ncn2)c1 [Example 262, N-methyl-4-(methyloxy)-3-[(6-{[4-(trifluoromethyl)phenyl]amino}-4-pyrimidinyl)amino]benzenesulfonamide trifluoroacetate]
CNS(=O)(=O)c1cccc(Nc2cc(Nc3ccc4[nH]c(=O)oc4c3)ncn2)c1 [Example 217, N-methyl-3-({6-[(2-oxo-2,3-dihydro-1,3-benzoxazol-6-yl)amino]-4-pyrimidinyl}amino)benzenesulfonamide trifluoroacetate]
CNS(=O)(=O)c1ccc(OC(C(F)(F)F)C(F)(F)F)c(Nc2cc(Nc3ccc(Cl)cc3)ncn2)c1 [Example 26, 3-({6-[(4-chlorophenyl)amino]-4-pyrimidinyl}amino)-N-methyl-4-{[2,2,2-trifluoro-1-(trifluoromethyl)ethyl]oxy}benzenesulfonamide trifluoroacetate]
CNS(=O)(=O)c1cccc(Nc2cc(Nc3nc(CC(=O)OC)cs3)ncn2)c1 [Example 282, methyl (2-{[6-({3-[(methylamino)sulfonyl]phenyl}amino)-4-pyrimidinyl]amino}-1,3-thiazol-4-yl)acetate trifluoroacetate]
CNS(=O)(=O)c1cccc(Nc2cc(Nc3ccc(OC(C)C)cc3)ncn2)c1 [Example 229, N-methyl-3-{[6-({4-[(1-methylethyl)oxy]phenyl}amino)-4-pyrimidinyl]amino}benzenesulfonamide trifluoroacetate]
CNS(=O)(=O)c1cccc(Nc2cc(Nc3ccc(Cl)c(-c4cccnc4)c3)ncn2)c1 [Example 346, 3-[(6-{[4-chloro-3-(3-pyridinyl)phenyl]amino}-4-pyrimidinyl)amino]-N-methylbenzenesulfonamide]
CNS(=O)(=O)c1ccc(SCC(F)(F)F)c(Nc2cc(Nc3ccc(Cl)cc3)ncn2)c1 [Example 125, 3-(6-(4-chlorophenylamino)pyrimidin-4-ylamino)-N-methyl-4-(2,2,2-trifluoroethylthio)benzenesulfonamide trifluoroacetate]
CNS(=O)(=O)c1ccc(SC)c(Nc2cc(Nc3ccc(Cn4cnnc4)cc3)ncn2)c1 [Example 158, N-methyl-4-methylsulfanyl-3-[6-(4-[1,2,4]triazol-4-ylmethyl-phenylamino)-pyrimidin-4-ylamino]-benzenesulfonamide trifluoroacetate]
CNS(=O)(=O)c1cccc(Nc2cc(Nc3ccc(C(=O)N(C)C)cc3)ncn2)c1 [Example 351, N,N-dimethyl-4-{[6-({3-[(methylamino)sulfonyl]phenyl}amino)-4-pyrimidinyl]amino}benzamide]
CNS(=O)(=O)c1cccc(Nc2cc(Nc3ccc(-n4nc(C)cc4C)cc3)ncn2)c1 [Example 235, 3-[(6-{[4-(3,5-dimethyl-1H-pyrazol-1-yl)phenyl]amino}-4-pyrimidinyl)amino]-N-methylbenzenesulfonamide trifluoroacetate]
CNS(=O)(=O)c1cccc(Nc2cc(Nc3ccc(Cl)c(-c4cccc(C(N)=O)c4)c3)ncn2)c1 [Example 347, 2′-chloro-5′-{[6-({3-[(methylamino)sulfonyl]phenyl}amino)-4-pyrimidinyl]amino}-3-biphenylcarboxamide]
CNS(=O)(=O)c1ccc2c(c1)N(c1cc(Nc3ccc(Cl)cc3)ncn1)CC2(C)C [Example 20, 1-{6-[(4-chlorophenyl)amino]-4-pyrimidinyl}-N,3,3-trimethyl-2,3-dihydro-1H-indole-6-sulfonamide trifluoroacetate]
CNS(=O)(=O)c1cccc(Nc2cc(Nc3ccc(-c4cccs4)cc3)ncn2)c1 [Example 237, N-methyl-3-[(6-{[4-(2-thienyl)phenyl]amino}-4-pyrimidinyl)amino]benzenesulfonamide trifluoroacetate]
CNS(=O)(=O)c1ccc(OCCC(F)(F)F)c(Nc2cc(Nc3ccc(Cl)cc3)ncn2)c1 [Example 16, 3-({6-[(4-chlorophenyl)amino]-4-pyrimidinyl}amino)-N-methyl-4-[(3,3,3-trifluoropropyl)oxy]benzenesulfonamide trifluoroacetate]
CNS(=O)(=O)c1cccc(Nc2cc(Nc3cccc(O)c3)ncn2)c1 [Example 372, 3-({6-[(3-hydroxyphenyl)amino]-4-pyrimidinyl}amino)-N-methylbenzenesulfonamide trifluoroacetate]
CNS(=O)(=O)c1cccc(Nc2cc(Nc3cccc(S(=O)(=O)N4CCOCC4)c3)ncn2)c1 [Example 61, N-methyl-3-[(6-{[3-(4-morpholinylsulfonyl)phenyl]amino}-4-pyrimidinyl)amino]benzenesulfonamide trifluoroacetate]
CNS(=O)(=O)c1cccc(Nc2cc(Nc3ccc(Br)cc3)ncn2)c1 [Example 242, 3-({6-[(4-bromophenyl)amino]-4-pyrimidinyl}amino)-N-methylbenzenesulfonamide trifluoroacetate]
CCOc1cccc(Nc2cc(Nc3cccc(S(=O)(=O)NC)c3)ncn2)c1 [Example 211, 3-[(6-{[3-(ethyloxy)phenyl]amino}-4-pyrimidinyl)amino]-N-methylbenzenesulfonamide trifluoroacetate]
CNS(=O)(=O)c1ccc(SC)c(Nc2cc(Nc3cc(OC)c(OC)c(OC)c3)ncn2)c1 [Example 140, N-methyl-4-methylsulfanyl-3-[6-(3,4,5-trimethoxy-phenylamino)-pyrimidin-4-ylamino]-benzenesulfonamide trifluoroacetate]
CNS(=O)(=O)c1ccc(SCC(F)(F)F)c(Nc2cc(Nc3ccc(CC(F)(F)F)cc3)ncn2)c1 [Example 38, N-methyl-3-[(6-{[4-(2,2,2-trifluoroethyl)phenyl]amino}-4-pyrimidinyl)amino]-4-[(2,2,2-trifluoroethyl)thio]benzenesulfonamide trifluoroacetate]
CNS(=O)(=O)c1cccc(Nc2cc(Nc3ccc(Cl)c(C(F)(F)F)c3)ncn2)c1 [Example 107, 3-[(6-{[4-chloro-3-(trifluoromethyl)phenyl]amino}-4-pyrimidinyl)amino]-N-methylbenzenesulfonamide trifluoroacetate]
CNS(=O)(=O)c1ccc(OCC(F)(F)F)c(Nc2cc(Nc3ccncn3)ncn2)c1 [Example 295, N-methyl-3-{[6-(4-pyrimidinylamino)-4-pyrimidinyl]amino}-4-[(2,2,2-trifluoroethyl)oxy]benzenesulfonamide]
CNS(=O)(=O)c1cccc(Nc2cc(Nc3cncc(S(=O)(=O)NC)c3)ncn2)c1 [Example 272, N-methyl-5-{[6-({3-[(methylamino)sulfonyl]phenyl}amino)-4-pyrimidinyl]amino}-3-pyridinesulfonamide]
CNS(=O)(=O)c1cccc(Nc2cc(Nc3ccc(SC(F)(F)F)cc3)ncn2)c1 [Example 241, N-methyl-3-{[6-({4-[(trifluoromethyl)thio]phenyl}amino)-4-pyrimidinyl]amino}benzenesulfonamide trifluoroacetate]
CNS(=O)(=O)c1ccc(SC)c(Nc2cc(Nc3ccc(F)c(F)c3)ncn2)c1 [Example 147, 3-[6-(3,4-difluoro-phenylamino)-pyrimidin-4-ylamino]-N-methyl-4-methylsulfanyl-benzenesulfonamide trifluoroacetate]
CNS(=O)(=O)c1ccc(OCC(C)C)c(Nc2cc(Nc3ccc(Cl)cc3)ncn2)c1 [Example 10, 3-({6-[(4-chlorophenyl)amino]-4-pyrimidinyl}amino)-N-methyl-4-[(2-methylpropyl)oxy]benzenesulfonamide trifluoroacetate]
CNS(=O)(=O)c1cccc(Nc2cc(Nc3ccc(C)c(C(F)(F)F)c3)ncn2)c1 [Example 106, N-methyl-3-[(6-{[4-methyl-3-(trifluoromethyl)phenyl]amino}-4-pyrimidinyl)amino]benzenesulfonamide trifluoroacetate]
